## Percent effect of library compounds

Source: ChEMBL document CHEMBL3988442, “University of Dundee, Small-Polar-MMV Screening Library” (2021).

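Growth of Mycobacterium tuberculosis over 4 days (cholesterol / DPPC medium with tyloxapol); the read-out is not stated. Compounds at 50 µM. Direction is inferred from retests: higher values go with more growth inhibition. Size under these conditions: about 69,000 compounds, about 370 of them at 50% or above in at least one test.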

Each number is a percent effect as filed.
How 0% and 100% were set is not recorded. Most values in the screen are low, and negative values occur.
This is an unselected part of the compounds tested.
Two or more numbers in one place are separate tests of the same structure; such repeats can differ widely.

| compound | Percent Effect |
|---|---|
| `CN(C)S(=O)(=O)N1CCC[C@]2(C[C@@H](Oc3ncccc3F)CO2)C1.O=C(O)C(F)(F)F` | -4.142 |
| `Cc1ccc(C(C)N(C)Cc2nc3c(cnn3C)c(=O)[nH]2)cc1` (stereo not shown) | 2.956 |
| `CN1CCN(c2ccc(Br)cc2NC(=O)c2ccco2)CC1` | 30.24 |
| `COCCC(=O)N1CCc2nc(N3CCOCC3)nc(NC(C)C)c2C1` | -7.28 & -22.43 |
| `[H][C@@]12CCN(CC3CCOCC3)C[C@@]1([H])O[C@@H](C)C2` | -1.058 |
| `Cc1ccc(NC(=O)C(C)N2CCCN(c3nccs3)CC2)c(C)c1` (stereo not shown) | -11.36 |
| `Cl.Cl.O=C(NCc1cncc2c1CCN(C1CCOCC1)C2)c1ccno1` | -9.693 |
| `CCC(C)c1cc(C(=O)N(CC(=O)NC)c2cccc(F)c2)on1` (stereo not shown) | -34.08 |
| `CCc1nc(CC2CN(c3ncnc4nc(C)cc(C)c34)CCO2)no1` (stereo not shown) | 8.296 |
| `CCCc1nc(C(C)(C)NC(=O)C2CC(=O)N(CC3CC3)C2)no1` (stereo not shown) | -12.55 |
| `O=C(O)C(F)(F)F.[H][C@@]12CCN(Cc3ccsc3)C[C@]1([H])[C@H](C(=O)Nc1cnccn1)CCO2` | 5.881 & -6.585 |
| `CN(CC1(CO)CCC1)C(=O)C1CCC(=O)N(Cc2ccc(Cl)cc2)C1` (stereo not shown) | -7.635 & 0.4981 |
| `COc1ccc(CN2CCCC(n3cccn3)C2)c(Cl)c1OC` (stereo not shown) | -4.357 |
| `Cc1cnccc1NCCNC(=O)C1CCCN(Cc2ccco2)C1` (stereo not shown) | 3.222 & 1.625 |
| `Cc1cccc(C2(C(=O)NCC(C)CN3CCCC3=O)CC2)c1` (stereo not shown) | 19.56 |
| `O=C(CO)N1CCC(c2cncc(-c3cccc(Cl)c3)n2)CC1` | -22.72 |
| `O=C(CCN1C(=O)CCC1=O)Nc1cnn(-c2ccccc2Cl)c1` | -4.25 |
| `CN1CCc2onc(Cn3cccc3)c2C1.O=C(O)C(F)(F)F` | -6.991 |
| `CCCOc1ccc2c(c1)OCC(CNC1CCc3ncnn3C1)=C2` (stereo not shown) | 12.38 |
| `COCC(=O)N1Cc2c(-c3cccc(C)c3)nc(N)nc2C1C` (stereo not shown) | -24.61 |
| `CCn1c(CN(C)CC(=O)N(C)C)nc2c(F)cccc21` | -17.58 |
| `O=C(O)C(F)(F)F.O=S(=O)(c1cccs1)N1CC[C@@H](O)[C@@H]1Cc1ccncc1` | -17.17 |
| `CC(C)NC(=O)C1(Cc2ccccc2-c2cncnc2)CCCNC1` (stereo not shown) | -6.118 & 2.223 |
| `CCOc1ncccc1NC(=O)NCC(O)c1ccc(OC)cc1` (stereo not shown) | 13.81 |
| `CC(Cn1cccn1)NC(=O)NCCc1cnn(C)c1` (stereo not shown) | -0.8949 |
| `CCn1cc(S(=O)(=O)N2CCCC3(CC=CNC3=O)C2)cn1` (stereo not shown) | 15.8 |
| `N#Cc1cccc(N2CCCC3(CNCCO3)C2)n1.O=C(O)C(F)(F)F.O=C(O)C(F)(F)F` (stereo not shown) | 27.87 |
| `COCc1noc(-c2ccc(N(C)Cc3c(C)n[nH]c3C)nc2)n1` | -3.372 & 0.1525 |
| `CC(C)(C)OC(=O)N1CSC[C@@H]1C(=O)NCc1ccsc1` | 0.4895 |
| `CNC(=O)CN1CCC12CCN(C(=O)Cc1ccccc1)C2.O=C(O)C(F)(F)F` (stereo not shown) | 6.554 |
| `O=C(c1ccc(-n2ccnc2)nc1)N1CCCC(n2cccn2)C1` (stereo not shown) | -2.886 |
| `Cc1noc(-c2ccc(-n3ncc(C(=O)O)c3C)nc2)n1` | -35.13 |
| `CN(Cc1cn2c(n1)CN(CC1CC1)CC2)Cc1ccco1.O=C(O)C(F)(F)F.O=C(O)C(F)(F)F` | 8.388 |
| `CC(C)(C)C(=O)N1CCCC1(C(=O)N1CCCC1)c1cnccn1` (stereo not shown) | -15.6 & -27.03 |
| `CN(C)C(=O)NC1COC2(CCN(Cc3ccc(N(C)C)cc3)CC2)C1` (stereo not shown) | -10.46 |
| `O=C(CSc1ccccn1)N1CCC(OCc2cccnc2)CC1` | -7.025 |
| `O=C(CN1CC(c2nc(C3CC3)no2)C1)N1CCOCC1.O=C(O)C(=O)O` | 0.3818 |
| `Cc1cc(NC(=O)N2CCCC2CN2CCOCC2)nn1C` (stereo not shown) | 5.61 |
| `CS(=O)(=O)N1CCOC2(CCCN(c3cnccn3)C2)C1.O=C(O)C(F)(F)F` (stereo not shown) | 2.808 |
| `O=c1c(NCc2ccccn2)c(NCC(O)CN2CCOCC2)c1=O` (stereo not shown) | -2.835 |
| `COC(=O)C1CN(Cc2ccn(-c3ccc(F)cc3)n2)C[C@@H](C)O1` (stereo partly shown) | -0.7459 |
| `CN(C)CCNc1cc(-c2ncccc2O)c2cc[nH]c2n1` | 19.15 & -13.52 |
| `O=C(O)C(F)(F)F.O=C(O)C(F)(F)F.[H][C@@]12CCC(=O)N(Cc3cccc(C)n3)[C@]1([H])CCN2Cc1ccc(F)cc1` | -1.535 |
| `CCc1cc(NC2CCN(CC(N)=O)CC2)nc(N2CCCCC2)n1` | -16.67 |
| `CN1C[C@@H](C(=O)NC2CC2)[C@@]2(COc3ccc(F)cc3C2=O)C1` | -8.325 & -1.789 |
| `Cc1nc(C(=O)N2CC(C)Sc3ccccc32)cs1` (stereo not shown) | -5.275 |
| `Clc1ccc(N2CCN(CCCN3CCCCC3)CC2)nc1` | -5.608 |
| `O=C(NC[C@H]1OC[C@@H](NC(=O)C2CCCC2)[C@@H]1O)c1ccncc1` | -13.87 |
| `CS(=O)(=O)N1CCCN(c2nccn3cnnc23)CC1` | -2.82 |
| `O=C(N[C@@H]1CN(Cc2ccc(F)cc2)C[C@H]1O)c1cscn1` | -18.77 |
| `CC[C@H](C)[C@H](N)C(=O)Nc1nc(-c2cnc(N(C)CCO)nc2)cs1` | -6.493 |
| `COCCN1CCC(N(Cc2noc(C3CC3)n2)C(C)=O)C1` (stereo not shown) | -7.977 |
| `CCOc1cccc(COC(=O)c2ccc(Cl)cn2)n1` | 19.96 |
| `COc1cccc(S(=O)(=O)N2C[C@H](OC)[C@]3(CCCO3)C2)c1` | 0.4507 |
| `O=C(Cc1ccccn1)N1CCC2(CC1)CC(Oc1ccccn1)CO2.O=C(O)C(F)(F)F.O=C(O)C(F)(F)F` (stereo not shown) | -19 |
| `O=C(O)C(F)(F)F.O=C1CC2(CCN(CC3CC3)C2)CN1c1ccc2c(c1)OCO2` (stereo not shown) | -20.72 |
| `Cc1nn(Cc2ccccc2)c(C)c1CNC1CCc2ncnn2C1` (stereo not shown) | -30.91 |
| `CN(CCOCC1CC1)C(=O)Cn1cccc(C(F)(F)F)c1=O` | -1.047 & -7.831 |
| `O=C(c1cc(C2CC2)[nH]n1)N1CCN(Cc2ccc3c(c2)OCO3)CC1` | 68.4 |
| `Cc1cc(C)c(S(=O)(=O)Nc2ccccc2CC(F)(F)F)cc1C(=O)O` | -8.453 |
| `Cc1[nH]c(-c2ccccc2)nc1C(=O)N1CCc2[nH]cnc2C1C(=O)O` (stereo not shown) | -6.271 & -5.693 |
| `O=C(c1ccc(F)c(F)c1)N1CCCC(Nc2ccc(F)cc2)C1` (stereo not shown) | 17.48 |

The first 5 entries again:

compound,Percent Effect
CN(C)S(=O)(=O)N1CCC[C@]2(C[C@@H](Oc3ncccc3F)CO2)C1.O=C(O)C(F)(F)F,-4.142
Cc1ccc(C(C)N(C)Cc2nc3c(cnn3C)c(=O)[nH]2)cc1 (stereo not shown),2.956
CN1CCN(c2ccc(Br)cc2NC(=O)c2ccco2)CC1,30.24
COCCC(=O)N1CCc2nc(N3CCOCC3)nc(NC(C)C)c2C1,-7.28 & -22.43
[H][C@@]12CCN(CC3CCOCC3)C[C@@]1([H])O[C@@H](C)C2,-1.058